{
  "source": "paper PMC7819943",
  "about": "“Rice protein-binding microarrays: a tool to detect cis-acting elements near promoter regions in rice”",
  "note": "Some of the results follow.",
  "data": [
    {"molecular_target": "T1, OsSMF1 (Oryza sativa, UniProt Q6ZLB0 1-436)", "T1 sequence": "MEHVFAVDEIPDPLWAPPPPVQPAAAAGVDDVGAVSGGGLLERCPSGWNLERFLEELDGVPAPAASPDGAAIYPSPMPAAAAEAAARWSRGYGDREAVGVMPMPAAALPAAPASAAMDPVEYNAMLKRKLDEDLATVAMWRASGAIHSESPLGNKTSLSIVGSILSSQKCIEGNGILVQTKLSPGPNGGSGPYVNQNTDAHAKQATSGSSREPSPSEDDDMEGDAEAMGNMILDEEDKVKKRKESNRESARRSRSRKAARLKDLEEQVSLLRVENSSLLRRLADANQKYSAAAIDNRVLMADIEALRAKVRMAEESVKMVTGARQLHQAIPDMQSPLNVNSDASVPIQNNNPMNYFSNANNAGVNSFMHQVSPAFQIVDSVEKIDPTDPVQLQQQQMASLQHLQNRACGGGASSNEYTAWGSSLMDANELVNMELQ", "experiment": "protein-binding microarray (RPBM); PBS, 2% BSA, 51.3 ng/ul salmon testes DNA, 50 uM zinc acetate, 200 nM TF, 25 C, 1 h; high values mean tight binding", "settings": "protein: recombinant; tags: N-terminal polyhistidine and DsRed monomer fusion (pET32a); chain copies: 2; label: CyDye5-dUTP incorporated in the synthesized complementary strand; 3' TTTTT single-stranded linker to array surface; dsDNA, one strand shown", "how_it_was_run": "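The binding signal is fluorescence intensity per feature, in arbitrary units, read on an Axon 4000B scanner. Polyhistidine- and DsRed-tagged transcription factors (N-terminal fusions) from E. coli BL21-CodonPlus were purified on Ni–NTA and applied at 200 nM for 1 h at 25 °C to a double-stranded, BSA-blocked custom Agilent array in buffer with 50 µM zinc acetate.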", "values": [
      {"sequence": "GCGTGCGGTGCGGAGCGCGGCCACGTCCGCCGCCGCCTCGCGGAGTCACCTAGTGCAG", "binding signal": "9620 fluorescence intensity (a.u.)"},
      {"sequence": "TATGTTAATATGATATGACCTTATGACTCACCAGTAGTCCCGGAGTCACCTAGTGCAG", "binding signal": "10800 fluorescence intensity (a.u.)"},
      {"sequence": "TATGATGGAGGACGAATATGGGCTGTCATAGGCCTTCTTTCGGAGTCACCTAGTGCAG", "binding signal": "3640 fluorescence intensity (a.u.)"},
      {"sequence": "ATGAATGATCGGAGATGAGAGCAAGGGTGACGTCAGCCATCGGAGTCACCTAGTGCAG", "binding signal": "15200 fluorescence intensity (a.u.)"},
      {"sequence": "CGTTCCATTCCCGGCGTCGACCTCCGGCCGCTGTCACCGACGGAGTCACCTAGTGCAG", "binding signal": "3880 fluorescence intensity (a.u.)"},
      {"sequence": "GCGCCGCCCGGTTCACACGGCCACACACGCACCGCCCTCTCGGAGTCACCTAGTGCAG", "binding signal": "4140 fluorescence intensity (a.u.)"},
      {"sequence": "AGCCTGGTGCCGTGATGTGCTGACGATGCTCCATGACGACCGGAGTCACCTAGTGCAG", "binding signal": "6540 fluorescence intensity (a.u.)"},
      {"sequence": "GTTTTGAGATACATCATCATCAATCCGTAGTTTTGTAGTACGGAGTCACCTAGTGCAG", "binding signal": "3420 fluorescence intensity (a.u.)"},
      {"sequence": "AGGCGCCTCACTCGAACCTTAATTTCGTGTTCTAGTTAGACGGAGTCACCTAGTGCAG", "binding signal": "34200 fluorescence intensity (a.u.)"},
      {"sequence": "GGTTAAGTTGGGAGGAATTCTCCAAGTCACCTTGTGCCTGCGGAGTCACCTAGTGCAG", "binding signal": "5440 fluorescence intensity (a.u.)"},
      {"sequence": "GGGAAGAAAAGTTCGGTCAGATCCCACGTGTACGCTTAGCCGGAGTCACCTAGTGCAG", "binding signal": "11800 fluorescence intensity (a.u.)"},
      {"sequence": "AGTCCAGCGAAGGGTGTGCGGCCGTGGAAAGTCTACTTGTCGGAGTCACCTAGTGCAG", "binding signal": "3220 fluorescence intensity (a.u.)"},
      {"sequence": "TTGGATGTGATGTGATGTAATGGAAAGTTAAAAGTTTGGACGGAGTCACCTAGTGCAG", "binding signal": "4080 fluorescence intensity (a.u.)"},
      {"sequence": "TGGCCACGTCCTCTTCTCCCCGAGCGGGTCTTATTCCCAGCGGAGTCACCTAGTGCAG", "binding signal": "6380 fluorescence intensity (a.u.)"},
      {"sequence": "TGGCGCAAGATTATTCACACCGCACGCCAGGCAGGGCGCACGGAGTCACCTAGTGCAG", "binding signal": "3140 fluorescence intensity (a.u.)"},
      {"sequence": "AGTGTAGTGGTGGTAGCCAGCCAAGAAACCATTTCTTTCCCGGAGTCACCTAGTGCAG", "binding signal": "34000 fluorescence intensity (a.u.)"},
      {"sequence": "GGAAGAGCTCTGTGCATTCTCTTATCAGTTTACTGTTGCACGGAGTCACCTAGTGCAG", "binding signal": "3270 fluorescence intensity (a.u.)"},
      {"sequence": "TGTTTGCAGTCAGAACATGGATGACTCTGCTGCTCAAACTCGGAGTCACCTAGTGCAG", "binding signal": "3600 fluorescence intensity (a.u.)"},
      {"sequence": "GGAATCCACATAAATGACACTTCCTCTAAATTTTAATATACGGAGTCACCTAGTGCAG", "binding signal": "24300 fluorescence intensity (a.u.)"},
      {"sequence": "GAGTATCATATGTGTCAGATCCTAGGTATCACATGTACCGCGGAGTCACCTAGTGCAG", "binding signal": "4100 fluorescence intensity (a.u.)"},
      {"sequence": "CAAGCCTGCCAGATAATCGTGCCCACGCTGCCGGCGAATGCGGAGTCACCTAGTGCAG", "binding signal": "3370 fluorescence intensity (a.u.)"},
      {"sequence": "GTGCGCACCCGGCACCCGCGTCCAACGCTATATATTACGCCGGAGTCACCTAGTGCAG", "binding signal": "3200 fluorescence intensity (a.u.)"},
      {"sequence": "CAAATCTGGGCATCCGCGTCAGCGCTGCGCCTGCGCCGCTCGGAGTCACCTAGTGCAG", "binding signal": "10400 fluorescence intensity (a.u.)"},
      {"sequence": "TTTGAGATTTGTGATGGAACACGTGTCACCTGTGGTCGCGCGGAGTCACCTAGTGCAG", "binding signal": "4790 fluorescence intensity (a.u.)"},
      {"sequence": "ATATCCTATCAGATGAACGTCAGTGACAGTGACTGTACTCCGGAGTCACCTAGTGCAG", "binding signal": "7840 fluorescence intensity (a.u.)"},
      {"sequence": "GGAGGATAAGGTAATGACGTGGTTATCCGGTCGAGCAAACCGGAGTCACCTAGTGCAG", "binding signal": "5280 fluorescence intensity (a.u.)"},
      {"sequence": "ATCGCCAACGTGTCGCGGCTTTCCGCCACCAAATCGATACCGGAGTCACCTAGTGCAG", "binding signal": "33000 fluorescence intensity (a.u.)"},
      {"sequence": "AGCCCAACTCGTGATCCAGTCATCCATAGTCGACTCGACTCGGAGTCACCTAGTGCAG", "binding signal": "4870 fluorescence intensity (a.u.)"},
      {"sequence": "GCAGCCGGATGCGAGCCGTCGTCGTCGCCCGTCGTGGCCACGGAGTCACCTAGTGCAG", "binding signal": "3280 fluorescence intensity (a.u.)"},
      {"sequence": "TATTACCAATGAAAATTTTATCTTATAGTCAGTTTAATCTCGGAGTCACCTAGTGCAG", "binding signal": "4970 fluorescence intensity (a.u.)"},
      {"sequence": "TTTTAAGTGTGGTTTATATCTTATATATTTGTATAAAATTCGGAGTCACCTAGTGCAG", "binding signal": "11400 fluorescence intensity (a.u.)"},
      {"sequence": "ACCATGGTGCCCGGGCACCATGGTGCCCCATATGAGTGTCCGGAGTCACCTAGTGCAG", "binding signal": "36800 fluorescence intensity (a.u.)"},
      {"sequence": "GGGGTGTGTGTGGGTTGGATCAACTACCCCAGCTACTGCCCGGAGTCACCTAGTGCAG", "binding signal": "3490 fluorescence intensity (a.u.)"},
      {"sequence": "CCAAACATACCCATTATCACATATCGCAGCCGCCCATGTTCGGAGTCACCTAGTGCAG", "binding signal": "35300 fluorescence intensity (a.u.)"},
      {"sequence": "CTGTTTCAGCACCACTGAGTTCGCAGCAAATGACACAAGGCGGAGTCACCTAGTGCAG", "binding signal": "3340 fluorescence intensity (a.u.)"},
      {"sequence": "CTAATACTCATTTAATGAGGGGCATATATCCTTTTCTCTCCGGAGTCACCTAGTGCAG", "binding signal": "30800 fluorescence intensity (a.u.)"},
      {"sequence": "TGTGGGGTCCACGTAATGCCACGTCAGCGCAACCTAGGAACGGAGTCACCTAGTGCAG", "binding signal": "37100 fluorescence intensity (a.u.)"},
      {"sequence": "AAGGAGCCTCCACGTTCGCTCTCATGGCCTAGAAATTCTCCGGAGTCACCTAGTGCAG", "binding signal": "3540 fluorescence intensity (a.u.)"},
      {"sequence": "TTCAAATGCCACCTAAGCGCCACGTCAACCCCATAGACTGCGGAGTCACCTAGTGCAG", "binding signal": "39500 fluorescence intensity (a.u.)"},
      {"sequence": "AAGAAAATGGAATCTAGGTGTAATCATCTACCACCGGTAACGGAGTCACCTAGTGCAG", "binding signal": "3140 fluorescence intensity (a.u.)"},
      {"sequence": "TGGAAAAGTCTGTGCTGTATTATTGAACCAGTCCTTCCAGCGGAGTCACCTAGTGCAG", "binding signal": "8990 fluorescence intensity (a.u.)"},
      {"sequence": "ATGGGATATCCATAATCTCCACACCAGGGGACTCCCTCATCGGAGTCACCTAGTGCAG", "binding signal": "30300 fluorescence intensity (a.u.)"},
      {"sequence": "CACTCACATGTGTGTCCAATCTCCATGATGTTCACATCACCGGAGTCACCTAGTGCAG", "binding signal": "3540 fluorescence intensity (a.u.)"},
      {"sequence": "TCCCCTTTTCAACCCACAGTACTATCCACGTCCGTACTATCGGAGTCACCTAGTGCAG", "binding signal": "3920 fluorescence intensity (a.u.)"},
      {"sequence": "GCGGTGTTGACTTCTTACAAGGACGTGTTCCCATGTCTCACGGAGTCACCTAGTGCAG", "binding signal": "4460 fluorescence intensity (a.u.)"},
      {"sequence": "AGAACCACAGATGGAGCGCTAATCATTGGTGCCGATCGGCCGGAGTCACCTAGTGCAG", "binding signal": "17900 fluorescence intensity (a.u.)"},
      {"sequence": "TCTCATTGACAAGCCAACAAACGCACAGTGTGACAAGCTCCGGAGTCACCTAGTGCAG", "binding signal": "35300 fluorescence intensity (a.u.)"},
      {"sequence": "ATATACCGTACCCCATCGCCATCGATCGGTGTCATTCATTCGGAGTCACCTAGTGCAG", "binding signal": "3400 fluorescence intensity (a.u.)"},
      {"sequence": "GAAATATATATTACTAATGTTACTTTTGTTACGGTTGTAGCGGAGTCACCTAGTGCAG", "binding signal": "20100 fluorescence intensity (a.u.)"},
      {"sequence": "TACTTTTCCAACCCAACCTCAAACACAACCAATCCACCTCCGGAGTCACCTAGTGCAG", "binding signal": "3260 fluorescence intensity (a.u.)"},
      {"sequence": "TCCATGGAAATGGTTCTCGATTGATCGGTAGTTTTCGTATCGGAGTCACCTAGTGCAG", "binding signal": "3200 fluorescence intensity (a.u.)"},
      {"sequence": "GCCGCCGCACGGCTTGTCGTTGTCATCGTCGTCACCTTGTCGGAGTCACCTAGTGCAG", "binding signal": "3920 fluorescence intensity (a.u.)"},
      {"sequence": "GGTGCAGTTCATCATATGTGTTAGACTAATTGAGTAATTGCGGAGTCACCTAGTGCAG", "binding signal": "36500 fluorescence intensity (a.u.)"},
      {"sequence": "CCCGCATACATGTCGTCCGCGGCCGTGGCGTCTCCGAGGGCGGAGTCACCTAGTGCAG", "binding signal": "3180 fluorescence intensity (a.u.)"}
    ]}
  ]
}
